Measured values as given in the supplement of paper PMC12823440, “Inhibitors supercharge kinase turnover through native proteolytic circuits” (Nature, 2025).
The other results are listed elsewhere or left out. The calls rarely recur for the same compound in another form.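 Kinases, fused to nanoluciferase, were expressed in K562 cells; luminescence was measured every 4 h from 2 to 18 h as percent of control (DMSO = 100%, positive control = 0%). A time point is decreased if signal falls significantly (2 sigma). Hits were called by the authors by a rule that is not shown; the count of time points alone does not decide it.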

By UniProt entry, the sequences of proteins in these tests, tags left out. Where a name states a change or a piece, a line headed by the entry shows the natural chain unless it says otherwise.
UniProt P10398: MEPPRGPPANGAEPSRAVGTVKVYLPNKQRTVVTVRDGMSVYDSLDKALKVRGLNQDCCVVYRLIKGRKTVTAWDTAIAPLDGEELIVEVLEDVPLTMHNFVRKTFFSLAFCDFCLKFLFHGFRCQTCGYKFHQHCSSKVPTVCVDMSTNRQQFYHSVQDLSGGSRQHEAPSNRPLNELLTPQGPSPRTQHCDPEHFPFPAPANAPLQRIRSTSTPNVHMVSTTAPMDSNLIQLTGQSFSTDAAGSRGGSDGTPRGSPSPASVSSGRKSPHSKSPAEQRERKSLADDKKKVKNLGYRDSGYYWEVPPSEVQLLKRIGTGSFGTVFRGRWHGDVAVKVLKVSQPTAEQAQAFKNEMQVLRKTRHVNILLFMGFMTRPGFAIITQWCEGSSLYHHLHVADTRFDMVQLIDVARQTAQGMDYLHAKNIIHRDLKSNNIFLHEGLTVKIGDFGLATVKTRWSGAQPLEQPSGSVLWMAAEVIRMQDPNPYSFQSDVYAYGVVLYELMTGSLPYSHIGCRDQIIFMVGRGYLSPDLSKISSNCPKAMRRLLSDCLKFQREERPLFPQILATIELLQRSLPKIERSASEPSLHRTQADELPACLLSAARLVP
UniProt O14965: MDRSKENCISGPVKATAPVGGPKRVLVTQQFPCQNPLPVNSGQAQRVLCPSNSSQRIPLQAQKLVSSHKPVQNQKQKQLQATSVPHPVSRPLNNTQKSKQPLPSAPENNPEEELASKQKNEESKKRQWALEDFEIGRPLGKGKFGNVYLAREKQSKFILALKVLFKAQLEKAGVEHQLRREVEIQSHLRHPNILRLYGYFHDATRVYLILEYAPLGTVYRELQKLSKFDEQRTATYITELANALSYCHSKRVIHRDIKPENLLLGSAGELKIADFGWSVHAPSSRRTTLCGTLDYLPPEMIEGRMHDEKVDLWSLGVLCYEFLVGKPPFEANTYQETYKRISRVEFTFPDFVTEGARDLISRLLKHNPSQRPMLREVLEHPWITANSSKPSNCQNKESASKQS
UniProt P51451: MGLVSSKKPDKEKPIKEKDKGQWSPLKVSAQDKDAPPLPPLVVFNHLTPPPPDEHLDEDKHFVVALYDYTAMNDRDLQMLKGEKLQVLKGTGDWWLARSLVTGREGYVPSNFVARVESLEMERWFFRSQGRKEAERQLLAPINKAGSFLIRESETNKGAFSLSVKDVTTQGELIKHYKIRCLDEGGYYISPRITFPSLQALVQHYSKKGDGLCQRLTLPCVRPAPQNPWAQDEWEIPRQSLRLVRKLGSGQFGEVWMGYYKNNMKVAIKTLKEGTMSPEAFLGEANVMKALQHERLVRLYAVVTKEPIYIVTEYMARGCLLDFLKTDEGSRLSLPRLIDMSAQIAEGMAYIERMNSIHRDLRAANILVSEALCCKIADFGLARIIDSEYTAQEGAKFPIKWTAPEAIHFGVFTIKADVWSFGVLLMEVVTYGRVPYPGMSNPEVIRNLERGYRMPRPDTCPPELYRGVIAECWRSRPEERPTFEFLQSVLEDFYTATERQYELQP
UniProt P51813: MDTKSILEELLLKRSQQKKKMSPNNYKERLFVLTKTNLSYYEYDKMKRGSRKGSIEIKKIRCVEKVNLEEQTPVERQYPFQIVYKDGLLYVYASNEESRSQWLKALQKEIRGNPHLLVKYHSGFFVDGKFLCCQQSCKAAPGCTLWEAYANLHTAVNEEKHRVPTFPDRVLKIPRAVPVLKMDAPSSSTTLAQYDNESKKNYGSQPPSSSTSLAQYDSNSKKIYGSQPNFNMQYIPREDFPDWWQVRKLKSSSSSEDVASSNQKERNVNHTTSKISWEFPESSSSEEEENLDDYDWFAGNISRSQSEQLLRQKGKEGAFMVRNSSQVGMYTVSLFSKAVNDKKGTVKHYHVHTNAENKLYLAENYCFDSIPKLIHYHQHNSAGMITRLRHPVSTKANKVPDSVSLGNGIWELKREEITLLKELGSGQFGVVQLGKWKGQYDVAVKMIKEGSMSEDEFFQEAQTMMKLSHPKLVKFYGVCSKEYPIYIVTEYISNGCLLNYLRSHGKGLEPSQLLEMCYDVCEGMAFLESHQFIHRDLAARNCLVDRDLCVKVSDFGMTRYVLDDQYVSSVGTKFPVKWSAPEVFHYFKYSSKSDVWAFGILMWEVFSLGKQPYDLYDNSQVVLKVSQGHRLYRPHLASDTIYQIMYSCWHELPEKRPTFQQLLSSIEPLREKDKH
UniProt P15056, whole entry, looked up: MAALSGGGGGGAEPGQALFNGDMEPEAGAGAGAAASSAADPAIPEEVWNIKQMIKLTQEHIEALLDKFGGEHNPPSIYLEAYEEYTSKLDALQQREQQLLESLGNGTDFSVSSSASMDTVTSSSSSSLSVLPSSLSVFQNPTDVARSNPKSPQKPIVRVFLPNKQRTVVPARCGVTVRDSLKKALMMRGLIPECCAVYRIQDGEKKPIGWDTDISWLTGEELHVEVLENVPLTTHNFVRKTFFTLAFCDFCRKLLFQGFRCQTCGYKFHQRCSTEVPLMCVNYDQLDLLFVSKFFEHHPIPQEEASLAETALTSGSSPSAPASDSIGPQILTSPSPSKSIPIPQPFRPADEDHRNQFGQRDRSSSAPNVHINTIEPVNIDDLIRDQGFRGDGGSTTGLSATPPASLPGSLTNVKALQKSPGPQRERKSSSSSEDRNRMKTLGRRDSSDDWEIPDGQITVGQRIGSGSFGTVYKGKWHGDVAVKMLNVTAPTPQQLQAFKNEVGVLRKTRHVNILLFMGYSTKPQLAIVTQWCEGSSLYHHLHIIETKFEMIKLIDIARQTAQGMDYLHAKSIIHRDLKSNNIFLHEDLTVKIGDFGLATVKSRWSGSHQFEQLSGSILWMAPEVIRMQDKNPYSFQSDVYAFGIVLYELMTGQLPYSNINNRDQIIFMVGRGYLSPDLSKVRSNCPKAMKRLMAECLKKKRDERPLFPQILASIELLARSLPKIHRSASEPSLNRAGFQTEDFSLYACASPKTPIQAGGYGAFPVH
UniProt Q06187: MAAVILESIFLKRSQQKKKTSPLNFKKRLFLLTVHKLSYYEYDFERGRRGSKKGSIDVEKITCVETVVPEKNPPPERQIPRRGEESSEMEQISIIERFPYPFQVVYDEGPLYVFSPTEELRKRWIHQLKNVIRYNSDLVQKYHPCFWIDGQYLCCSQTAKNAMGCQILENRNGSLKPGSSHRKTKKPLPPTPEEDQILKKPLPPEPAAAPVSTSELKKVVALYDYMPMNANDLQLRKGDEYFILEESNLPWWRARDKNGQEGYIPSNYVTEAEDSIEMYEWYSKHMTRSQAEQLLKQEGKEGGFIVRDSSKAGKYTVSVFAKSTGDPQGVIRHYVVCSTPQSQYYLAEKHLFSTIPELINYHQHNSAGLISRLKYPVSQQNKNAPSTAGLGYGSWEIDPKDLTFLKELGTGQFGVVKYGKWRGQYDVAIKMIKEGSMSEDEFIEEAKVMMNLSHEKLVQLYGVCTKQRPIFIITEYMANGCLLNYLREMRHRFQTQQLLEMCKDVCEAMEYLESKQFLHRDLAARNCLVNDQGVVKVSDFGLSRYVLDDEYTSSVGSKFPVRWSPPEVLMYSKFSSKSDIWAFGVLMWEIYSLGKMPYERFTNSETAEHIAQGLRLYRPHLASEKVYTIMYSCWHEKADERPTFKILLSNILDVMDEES
UniProt Q9UQM7, whole entry: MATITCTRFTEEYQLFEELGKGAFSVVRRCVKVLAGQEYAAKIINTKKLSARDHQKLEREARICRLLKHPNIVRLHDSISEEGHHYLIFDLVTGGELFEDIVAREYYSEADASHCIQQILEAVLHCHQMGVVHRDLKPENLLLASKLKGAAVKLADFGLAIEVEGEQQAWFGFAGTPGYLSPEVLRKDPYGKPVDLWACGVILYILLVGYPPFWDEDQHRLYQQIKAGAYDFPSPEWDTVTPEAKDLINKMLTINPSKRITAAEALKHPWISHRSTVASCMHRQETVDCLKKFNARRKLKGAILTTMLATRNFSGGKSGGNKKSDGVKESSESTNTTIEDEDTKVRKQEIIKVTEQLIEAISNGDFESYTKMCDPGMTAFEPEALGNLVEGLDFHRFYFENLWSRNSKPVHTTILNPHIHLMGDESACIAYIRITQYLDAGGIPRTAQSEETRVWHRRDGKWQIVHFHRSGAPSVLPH
UniProt Q00534, whole entry: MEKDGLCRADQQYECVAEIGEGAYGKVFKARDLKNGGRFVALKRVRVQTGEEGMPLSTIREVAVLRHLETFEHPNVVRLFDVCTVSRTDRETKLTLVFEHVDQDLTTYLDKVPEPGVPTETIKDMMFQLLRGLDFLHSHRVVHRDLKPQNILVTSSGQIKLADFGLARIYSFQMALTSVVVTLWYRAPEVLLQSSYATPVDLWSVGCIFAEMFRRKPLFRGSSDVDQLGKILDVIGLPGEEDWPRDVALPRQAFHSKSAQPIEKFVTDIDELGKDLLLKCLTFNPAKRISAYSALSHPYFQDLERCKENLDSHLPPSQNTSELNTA
UniProt O96017, whole entry: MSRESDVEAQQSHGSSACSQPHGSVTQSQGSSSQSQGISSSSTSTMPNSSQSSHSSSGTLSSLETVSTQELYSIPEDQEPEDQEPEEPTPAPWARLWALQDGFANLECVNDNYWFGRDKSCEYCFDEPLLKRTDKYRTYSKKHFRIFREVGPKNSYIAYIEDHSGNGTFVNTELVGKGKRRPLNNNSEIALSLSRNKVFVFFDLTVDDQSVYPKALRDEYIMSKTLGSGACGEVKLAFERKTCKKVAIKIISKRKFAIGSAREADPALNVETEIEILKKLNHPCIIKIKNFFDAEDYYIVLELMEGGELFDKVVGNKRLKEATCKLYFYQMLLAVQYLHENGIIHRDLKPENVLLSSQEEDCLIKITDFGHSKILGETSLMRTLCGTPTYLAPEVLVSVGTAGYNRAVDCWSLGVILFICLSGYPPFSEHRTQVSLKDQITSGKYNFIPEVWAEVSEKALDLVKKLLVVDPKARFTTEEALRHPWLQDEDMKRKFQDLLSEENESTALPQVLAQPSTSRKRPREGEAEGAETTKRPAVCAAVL
UniProt P07333, whole entry: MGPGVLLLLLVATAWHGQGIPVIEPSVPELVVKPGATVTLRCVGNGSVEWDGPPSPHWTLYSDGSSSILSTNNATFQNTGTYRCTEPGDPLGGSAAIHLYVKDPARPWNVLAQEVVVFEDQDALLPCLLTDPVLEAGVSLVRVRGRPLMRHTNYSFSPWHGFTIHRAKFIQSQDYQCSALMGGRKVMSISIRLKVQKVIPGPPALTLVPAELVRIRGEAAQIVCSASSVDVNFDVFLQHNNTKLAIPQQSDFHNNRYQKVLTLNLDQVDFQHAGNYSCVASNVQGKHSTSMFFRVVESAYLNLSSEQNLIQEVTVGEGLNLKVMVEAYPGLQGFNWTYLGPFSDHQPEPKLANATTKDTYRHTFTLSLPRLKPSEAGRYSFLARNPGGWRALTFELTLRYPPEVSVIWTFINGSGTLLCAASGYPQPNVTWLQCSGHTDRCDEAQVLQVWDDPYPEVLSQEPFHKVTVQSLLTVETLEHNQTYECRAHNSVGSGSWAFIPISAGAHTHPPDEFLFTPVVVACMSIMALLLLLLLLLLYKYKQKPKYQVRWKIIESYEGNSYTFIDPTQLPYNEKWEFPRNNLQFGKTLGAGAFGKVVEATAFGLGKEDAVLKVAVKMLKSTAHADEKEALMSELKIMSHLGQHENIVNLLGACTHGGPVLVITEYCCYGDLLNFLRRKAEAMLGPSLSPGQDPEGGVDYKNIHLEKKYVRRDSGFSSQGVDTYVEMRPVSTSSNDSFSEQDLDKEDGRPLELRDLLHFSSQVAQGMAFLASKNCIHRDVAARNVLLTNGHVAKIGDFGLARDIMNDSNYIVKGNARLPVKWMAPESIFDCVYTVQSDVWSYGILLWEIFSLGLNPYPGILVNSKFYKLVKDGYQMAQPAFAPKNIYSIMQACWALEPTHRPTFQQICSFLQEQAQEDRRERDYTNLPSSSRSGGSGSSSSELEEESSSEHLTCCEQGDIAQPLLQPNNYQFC
UniProt P41240: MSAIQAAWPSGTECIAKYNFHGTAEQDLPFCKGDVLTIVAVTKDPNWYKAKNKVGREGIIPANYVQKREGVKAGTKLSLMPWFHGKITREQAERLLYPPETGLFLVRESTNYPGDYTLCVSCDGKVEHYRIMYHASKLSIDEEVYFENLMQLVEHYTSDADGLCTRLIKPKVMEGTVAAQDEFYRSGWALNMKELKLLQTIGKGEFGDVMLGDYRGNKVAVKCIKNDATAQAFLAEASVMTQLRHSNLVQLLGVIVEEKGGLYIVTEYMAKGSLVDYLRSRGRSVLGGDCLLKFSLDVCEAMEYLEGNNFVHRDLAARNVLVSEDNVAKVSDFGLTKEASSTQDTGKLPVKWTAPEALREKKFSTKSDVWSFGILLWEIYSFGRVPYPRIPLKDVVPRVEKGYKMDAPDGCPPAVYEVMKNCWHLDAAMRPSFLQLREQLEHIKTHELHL

Legend:
Assay in all cases: number of time points (of 5) at which kinase-Nluc abundance scored as decreased, DMSO-normalised (count); higher = more persistent destabilization
Conditions in all cases: K562; 2-18 h
[1] = molecular target: ALK (UniProt Q9UM73)
[2] = molecular target: ARAF (UniProt P10398)
[3] = molecular target: AURKA (UniProt O14965)
[4] = molecular target: AURKB (UniProt Q96GD4)
[5] = molecular target: AURKC (UniProt Q9UQB9)
[6] = molecular target: BLK (UniProt P51451)
[7] = molecular target: BMX (UniProt P51813)
[8] = molecular target: BRAF (UniProt P15056)
[9] = system: BRAF_V600E
[10] = molecular target: BTK (UniProt Q06187)
[11] = molecular target: CAMK2A (UniProt Q9UQM7)
[12] = molecular target: CAMK2G (UniProt Q13555)
[13] = molecular target: CDK10 (UniProt Q15131)
[14] = molecular target: CDK2 (UniProt P24941)
[15] = molecular target: CDK3 (UniProt Q00526)
[16] = molecular target: CDK5 (UniProt Q00535)
[17] = molecular target: CDK6 (UniProt Q00534)
[18] = molecular target: CHEK2 (UniProt O96017)
[19] = molecular target: CSF1R (UniProt P07333)
[20] = molecular target: CSK (UniProt P41240)

Structure (SMILES) | number of time points [1] | number of time points [2] | number of time points [3] | number of time points [4] | number of time points [5] | number of time points [6] | number of time points [7] | number of time points [8] | number of time points [9] | number of time points [10] | number of time points [11] | number of time points [12] | number of time points [13] | number of time points [14] | number of time points [15] | number of time points [16] | number of time points [17] | number of time points [18] | number of time points [19] | number of time points [20]
COc1ccc(C2CC(c3ccc(Cl)cc3)=NN2c2nc(-c3ccncc3)cs2)cc1 (stereo not given) [mTOR inhibitor-8] (10 µM) | 0 | 0 | 0 | 0 | 0 | 2 | 0 | 0 | 0 | 0 | 0 | 0 | 0 | 0 | 0 | 0 | 0 | 0 | 0 | 0
O=C(Nc1ncc(SCCN2CCCC2)s1)[C@]1(c2ccc(S(=O)(=O)C3CC3)cc2)C[C@H]1C1CCCCC1 [Globalagliatin] (2.5 µM) | 0 | 1 | 0 | 0 | 0 | 0 | 0 | 0 | 0 | 0 | 0 | 0 | 0 | 0 | 0 | 0 | 0 | 0 | 0 | 0
CC(=O)Nc1nc(C)c(-c2ccc(Cl)c(S(=O)(=O)NCCO)c2)s1 (10 µM) | 0 | 0 | 0 | 0 | 0 | 2 | 1 | 0 | 1 | 0 | 0 | 0 | 0 | 0 | 0 | 0 | 0 | 0 | 0 | 0
O=S(=O)(N=Cc1c(O)ccc2ccccc12)c1cccs1 (10 µM) | 0 | 0 | 0 | 0 | 0 | 0 | 0 | 0 | 0 | 0 | 0 | 0 | 0 | 0 | 0 | 0 | 0 | 0 | 0 | 0
COC(=O)c1cc2c(OC(C)C)cc(OC(C)C)cc2[nH]1 (2.5 µM) | 0 | 0 | 0 | 0 | 0 | 0 | 0 | 0 | 0 | 0 | 0 | 0 | 0 | 0 | 0 | 0 | 0 | 0 | 0 | 0
CNC(=O)c1ccc(-c2cnc3ncc(Cc4ccc5ncccc5c4)n3n2)cc1F [Capmatinib] (10 µM) | 0 | 0 | 0 | 0 | 0 | 0 | 0 | 0 | 0 | 0 | 0 | 0 | 0 | 0 | 0 | 0 | 0 | 0 | 0 | 0
CC(C)(C)S(=O)(=O)c1ccc2nccc(Nc3n[nH]c4ccc(F)cc34)c2c1 (10 µM) | 0 | 0 | 0 | 0 | 0 | 0 | 0 | 0 | 0 | 0 | 0 | 0 | 0 | 0 | 0 | 0 | 0 | 0 | 0 | 0
C=CC(=O)N1CCN(c2nc(OC[C@@H]3CCCN3C)nc3c2CCN(c2cccc4cccc(C)c24)C3)C[C@@H]1CC#N (2.5 µM) | 0 | 0 | 0 | 0 | 0 | 0 | 0 | 0 | 0 | 0 | 0 | 0 | 0 | 0 | 0 | 0 | 0 | 0 | 0 | 0
CN(C)C(=O)c1cc2cnc(Nc3ccc(NC(=O)C4(C(=O)Nc5ccc(F)cc5)CC4)cc3)nc2n1C1CCCC1 (2 µM) | 0 | 0 | 0 | 0 | 0 | 0 | 0 | 0 | 0 | 0 | 0 | 0 | 0 | 3 | 3 | 0 | 0 | 0 | 0 | 0
C=CC(=O)Nc1cccc(Nc2nc(Nc3ccc(Oc4ccnc(C(=O)NC)c4)cc3)ncc2F)c1 (2.5 µM) | 0 | 0 | 0 | 0 | 0 | 0 | 0 | 0 | 0 | 0 | 0 | 0 | 0 | 0 | 0 | 0 | 0 | 0 | 0 | 0
CCN1C(C)(C)CC(Oc2ccc(C(=O)Nc3ccc(NC(=O)Nc4cc(C(C)(C)C)on4)cc3)nc2)CC1(C)C (10 µM) | 0 | 0 | 0 | 0 | 0 | 0 | 0 | 0 | 0 | 0 | 0 | 0 | 0 | 0 | 0 | 0 | 0 | 0 | 0 | 0
O=C(N=c1sccn1Cc1ccccc1)c1c[nH]c2ncccc12 (10 µM) | 0 | 0 | 0 | 0 | 0 | 0 | 0 | 0 | 0 | 0 | 0 | 0 | 0 | 0 | 0 | 0 | 0 | 0 | 0 | 0
CNC(=O)c1c(C)oc2cc(Oc3ncnc4cc(OC)c(OC)cc34)ccc12 [Fruquintinib] (10 µM) | 0 | 0 | 0 | 0 | 0 | 0 | 0 | 0 | 0 | 0 | 0 | 0 | 0 | 0 | 0 | 0 | 0 | 0 | 0 | 0
Cn1cc(-c2cn3nccc3c(-c3cnn([C@]4(CC#N)C[C@@H](C#N)C4)c3)n2)cn1 (10 µM) | 0 | 0 | 0 | 0 | 0 | 0 | 0 | 0 | 0 | 0 | 0 | 0 | 0 | 0 | 0 | 0 | 0 | 0 | 0 | 0
C=CC(=O)N[C@H]1CCOC[C@H]1Nc1ncc2cc(-c3c(Cl)c(OC)cc(OC)c3Cl)ccc2n1 [Fisogatinib] (10 µM) | 0 | 0 | 0 | 0 | 0 | 0 | 0 | 0 | 0 | 0 | 0 | 0 | 0 | 0 | 0 | 0 | 0 | 0 | 0 | 0
CC(=O)Nc1nc(C)c(-c2cc3c(c(S(C)(=O)=O)c2)C(=O)N([C@@H](C)C2CC2)C3)s1 (2.5 µM) | 0 | 0 | 0 | 0 | 0 | 0 | 0 | 0 | 0 | 0 | 0 | 0 | 0 | 0 | 0 | 0 | 0 | 0 | 0 | 0

Record cards (already shown). Order of values: number of time points [1] | number of time points [2] | number of time points [3] | number of time points [4] | number of time points [5] | number of time points [6] | number of time points [7] | number of time points [8] | number of time points [9] | number of time points [10] | number of time points [11] | number of time points [12] | number of time points [13] | number of time points [14] | number of time points [15] | number of time points [16] | number of time points [17] | number of time points [18] | number of time points [19] | number of time points [20]
CN(C)C(=O)c1cc2cnc(Nc3ccc(NC(=O)C4(C(=O)Nc5ccc(F)cc5)CC4)cc3)nc2n1C1CCCC1 (2 µM) is entered as 0 | 0 | 0 | 0 | 0 | 0 | 0 | 0 | 0 | 0 | 0 | 0 | 0 | 3 | 3 | 0 | 0 | 0 | 0 | 0
C=CC(=O)N[C@H]1CCOC[C@H]1Nc1ncc2cc(-c3c(Cl)c(OC)cc(OC)c3Cl)ccc2n1 [Fisogatinib] (10 µM) is entered as 0 | 0 | 0 | 0 | 0 | 0 | 0 | 0 | 0 | 0 | 0 | 0 | 0 | 0 | 0 | 0 | 0 | 0 | 0 | 0
